Assay results reported in the supplement of paper PMC11006884.
The entries are a selection whose mix differs from that of the whole data set.

compound: COC(=O)C#Cc1ccccc1 [methyl 3-phenylpropiolate]; assay: log2 ratio of iodoacetamide-alkyne labeling of the cysteine site, DMSO over compound (competition); higher = stronger covalent engagement of the cysteine by the compound, active = 1 or more; details: 500 µM; treatment time 1 h; system: HEK293T cell lysate
Method in brief: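 HEK293T lysate at 2 mg/mL was treated with vehicle or electrophile (500 µM) for 1 h at ambient temperature, then labelled with iodoacetamide alkyne (1 h), clicked to sCIP-TMT reagents, pooled, digested with trypsin overnight at 37 °C, enriched on streptavidin and eluted with acid. Peptides were analysed by Orbitrap Eclipse LC-MS/MS with FAIMS and quantified in FragPipe, using duplicate channels and three replicates, with cysteines quantified in only one replicate excluded. The log2 competition ratio for each cysteine is the mean control-channel reporter intensity divided by the mean compound-channel reporter intensity.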

log2 ratio of iodoacetamide-alkyne labeling, active:
CCT7 C29 (UniProt Q99832) 1.51

log2 ratio of iodoacetamide-alkyne labeling, inactive:
HNRNPAB C98 (UniProt Q99729) -0.0694
CPNE1 C53 (UniProt Q99829) -0.0731
UHRF1 C497 (UniProt Q96T88) 0.223
UniProt Q96MG7_C283 0.0647
SECISBP2 C719 (UniProt Q96T21) -0.258
MYBBP1A C1046 (UniProt Q9BQG0) 0.245
SH3GL1 C277 (UniProt Q99961) 0.344
SCYL1 C241 (UniProt Q96KG9) 0.11
RBM15 C785 (UniProt Q96T37) 0.33
MMS19 C386 (UniProt Q96T76) 0.445
CNN2 C215 (UniProt Q99439) 0.929
CLCC1 C550 (UniProt Q96S66) 0.198
UniProt Q9BPU6_C22 -0.0781
RNF2 C179 (UniProt Q99496) 0.263
UniProt Q96NC0_C85 0.128
KIF2C C287 (UniProt Q99661) 0.0204
ELAC2 C609 (UniProt Q9BQ52) 0.26
CCT7 C450 (UniProt Q99832) 0.055
NUDCD1 C7 (UniProt Q96RS6) 0.0748
VCPIP1 C160 (UniProt Q96JH7) -0.23
RNF2 C75 (UniProt Q99496) -0.358
PARK7 C106 (UniProt Q99497) 0.0126
DOK1 C308 (UniProt Q99704) 0.495
MTR C1153 (UniProt Q99707) -0.209
PIK3R4 C899 (UniProt Q99570) 0.087
UniProt Q96PU8_C35 0.362
VPS39 C681 (UniProt Q96JC1) 0.0205
SPEN C3632 (UniProt Q96T58) 0.433
PARK7 C46 (UniProt Q99497) 0.0846
TCF25 C216 (UniProt Q9BQ70) 0.479
SNX27 C30 (UniProt Q96L92) 0.774
NCAPG C177 (UniProt Q9BPX3) 0.306
UniProt Q9BQ75_C55 0.525
CCT7 C326 (UniProt Q99832) 0.059
OSBPL9 C619 (UniProt Q96SU4) 0.124
UniProt Q96TA1_C154 0.644

Random excerpt: 2 entries already listed.
log2 ratio of iodoacetamide-alkyne labeling, inactive:
VCPIP1 C160 (UniProt Q96JH7) -0.23
NUDCD1 C7 (UniProt Q96RS6) 0.0748
